# From patent publication US20070027088A1 (priority 2003, published 2007)
# “Also recorded” adds a separate entry of the source. At least one peptide structure holds a part that was inferred or is arguable (an end, a ring closure or a residue). Where a SMILES comes first, the peptide text is derived from it.
# Tests used:
# [1] = test system: human PBMCs stimulated with SEB; type: cell-based
# [2] = test system: SEB lethal shock in BALB/c mice; details: mouse, in vivo
SMILES,inhibition of SEB proliferation (words) [1],inhibition of proliferative effects of the toxin [1],protection against lethal shock [2],# SURVIVORS ([2]; ip),% SURVIVAL ([2]; ip) [%]
CSCC[C@H](NC(=O)[C@@H](N)CS)C(=O)N[C@@H](Cc1ccc(O)cc1)C(=O)O [CMY] (H-Cys-Met-Tyr-OH),comparable to that of the original 12-mer; also recorded: almost as effective as the original 12-mer peptide 6343,as active as the original 12 amino acid peptide,,,
CSCC[C@H](NC(=O)[C@@H](N)Cc1ccc(O)cc1)C(=O)N[C@@H](CS)C(=O)O [YMC] (H-Tyr-Met-Cys-OH),comparable to that of the original 12-mer; also recorded: almost as effective as the original 12-mer peptide 6343,,prevented the induction of lethal shock,3,75
